This is one part of the list.

By UniProt entry, the sequences of proteins in these tests, tags left out. Where a name states a change or a piece, a line headed by the entry shows the natural chain unless it says otherwise.
UniProt Q06033: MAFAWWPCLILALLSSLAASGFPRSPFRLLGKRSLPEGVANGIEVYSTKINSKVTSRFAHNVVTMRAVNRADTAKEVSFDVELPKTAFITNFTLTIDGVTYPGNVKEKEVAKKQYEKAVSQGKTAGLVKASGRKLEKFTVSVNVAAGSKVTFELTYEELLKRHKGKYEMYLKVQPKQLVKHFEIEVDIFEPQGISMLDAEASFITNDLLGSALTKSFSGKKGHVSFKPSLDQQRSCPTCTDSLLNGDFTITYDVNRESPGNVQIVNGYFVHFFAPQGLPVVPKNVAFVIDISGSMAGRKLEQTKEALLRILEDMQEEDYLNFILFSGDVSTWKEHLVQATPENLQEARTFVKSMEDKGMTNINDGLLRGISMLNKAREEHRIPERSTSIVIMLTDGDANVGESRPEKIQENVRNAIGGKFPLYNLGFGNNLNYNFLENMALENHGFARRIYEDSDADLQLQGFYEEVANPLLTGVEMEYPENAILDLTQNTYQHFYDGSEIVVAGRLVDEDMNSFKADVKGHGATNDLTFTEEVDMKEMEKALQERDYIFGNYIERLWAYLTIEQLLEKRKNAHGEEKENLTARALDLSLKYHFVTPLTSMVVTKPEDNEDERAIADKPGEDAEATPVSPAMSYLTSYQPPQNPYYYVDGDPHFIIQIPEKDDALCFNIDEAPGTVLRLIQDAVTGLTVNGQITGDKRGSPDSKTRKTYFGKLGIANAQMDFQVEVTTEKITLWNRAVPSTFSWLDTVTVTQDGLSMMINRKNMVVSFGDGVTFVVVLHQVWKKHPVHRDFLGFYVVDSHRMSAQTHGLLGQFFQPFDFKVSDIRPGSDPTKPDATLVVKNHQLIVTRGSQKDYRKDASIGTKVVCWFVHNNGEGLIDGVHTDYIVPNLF
UniProt Q13352: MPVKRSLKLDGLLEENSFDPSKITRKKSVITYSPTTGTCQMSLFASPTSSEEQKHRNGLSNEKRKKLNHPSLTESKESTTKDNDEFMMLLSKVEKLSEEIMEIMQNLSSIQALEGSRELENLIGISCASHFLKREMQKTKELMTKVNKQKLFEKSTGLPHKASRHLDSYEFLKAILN
UniProt P53990, whole entry, looked up: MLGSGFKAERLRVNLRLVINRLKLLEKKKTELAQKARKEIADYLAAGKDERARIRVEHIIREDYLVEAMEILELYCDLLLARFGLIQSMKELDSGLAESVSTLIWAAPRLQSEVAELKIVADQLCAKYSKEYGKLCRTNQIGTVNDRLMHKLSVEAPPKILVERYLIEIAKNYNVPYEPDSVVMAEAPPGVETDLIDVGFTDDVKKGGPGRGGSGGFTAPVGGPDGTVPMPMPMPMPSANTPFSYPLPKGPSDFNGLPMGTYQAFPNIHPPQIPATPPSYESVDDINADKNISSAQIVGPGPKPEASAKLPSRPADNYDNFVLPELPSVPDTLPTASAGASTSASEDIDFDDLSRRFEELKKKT
UniProt Q92830, whole entry, looked up: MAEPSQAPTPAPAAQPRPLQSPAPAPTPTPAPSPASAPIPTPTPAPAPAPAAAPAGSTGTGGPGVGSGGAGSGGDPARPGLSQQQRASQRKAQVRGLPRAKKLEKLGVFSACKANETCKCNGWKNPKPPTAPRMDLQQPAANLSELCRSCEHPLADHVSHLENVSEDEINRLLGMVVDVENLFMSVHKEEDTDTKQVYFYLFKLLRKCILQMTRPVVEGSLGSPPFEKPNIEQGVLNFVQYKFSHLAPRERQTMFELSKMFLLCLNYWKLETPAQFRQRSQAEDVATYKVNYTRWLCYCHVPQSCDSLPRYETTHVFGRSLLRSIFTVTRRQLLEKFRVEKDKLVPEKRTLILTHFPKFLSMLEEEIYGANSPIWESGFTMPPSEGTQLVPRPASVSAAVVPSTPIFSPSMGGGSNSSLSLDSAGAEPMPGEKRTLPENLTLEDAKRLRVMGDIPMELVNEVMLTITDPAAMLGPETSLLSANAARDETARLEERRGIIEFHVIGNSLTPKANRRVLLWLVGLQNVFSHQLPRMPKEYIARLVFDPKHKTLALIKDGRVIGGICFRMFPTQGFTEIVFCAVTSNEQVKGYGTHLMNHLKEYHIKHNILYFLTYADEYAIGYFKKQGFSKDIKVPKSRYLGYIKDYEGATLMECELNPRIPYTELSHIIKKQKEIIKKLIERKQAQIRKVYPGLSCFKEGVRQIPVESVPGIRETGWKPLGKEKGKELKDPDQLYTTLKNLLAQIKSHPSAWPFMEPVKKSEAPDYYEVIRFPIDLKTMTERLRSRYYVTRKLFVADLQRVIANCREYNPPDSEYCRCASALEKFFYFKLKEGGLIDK
UniProt Q9H9L3: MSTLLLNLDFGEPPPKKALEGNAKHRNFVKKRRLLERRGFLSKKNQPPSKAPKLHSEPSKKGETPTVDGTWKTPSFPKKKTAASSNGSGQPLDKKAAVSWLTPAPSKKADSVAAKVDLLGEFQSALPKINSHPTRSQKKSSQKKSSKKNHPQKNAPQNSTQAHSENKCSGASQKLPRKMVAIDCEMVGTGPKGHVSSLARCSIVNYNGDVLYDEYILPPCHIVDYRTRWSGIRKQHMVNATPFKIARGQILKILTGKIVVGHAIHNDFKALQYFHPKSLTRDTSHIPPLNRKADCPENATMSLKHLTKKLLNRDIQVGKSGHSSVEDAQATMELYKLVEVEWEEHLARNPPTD
UniProt Q7Z3B3: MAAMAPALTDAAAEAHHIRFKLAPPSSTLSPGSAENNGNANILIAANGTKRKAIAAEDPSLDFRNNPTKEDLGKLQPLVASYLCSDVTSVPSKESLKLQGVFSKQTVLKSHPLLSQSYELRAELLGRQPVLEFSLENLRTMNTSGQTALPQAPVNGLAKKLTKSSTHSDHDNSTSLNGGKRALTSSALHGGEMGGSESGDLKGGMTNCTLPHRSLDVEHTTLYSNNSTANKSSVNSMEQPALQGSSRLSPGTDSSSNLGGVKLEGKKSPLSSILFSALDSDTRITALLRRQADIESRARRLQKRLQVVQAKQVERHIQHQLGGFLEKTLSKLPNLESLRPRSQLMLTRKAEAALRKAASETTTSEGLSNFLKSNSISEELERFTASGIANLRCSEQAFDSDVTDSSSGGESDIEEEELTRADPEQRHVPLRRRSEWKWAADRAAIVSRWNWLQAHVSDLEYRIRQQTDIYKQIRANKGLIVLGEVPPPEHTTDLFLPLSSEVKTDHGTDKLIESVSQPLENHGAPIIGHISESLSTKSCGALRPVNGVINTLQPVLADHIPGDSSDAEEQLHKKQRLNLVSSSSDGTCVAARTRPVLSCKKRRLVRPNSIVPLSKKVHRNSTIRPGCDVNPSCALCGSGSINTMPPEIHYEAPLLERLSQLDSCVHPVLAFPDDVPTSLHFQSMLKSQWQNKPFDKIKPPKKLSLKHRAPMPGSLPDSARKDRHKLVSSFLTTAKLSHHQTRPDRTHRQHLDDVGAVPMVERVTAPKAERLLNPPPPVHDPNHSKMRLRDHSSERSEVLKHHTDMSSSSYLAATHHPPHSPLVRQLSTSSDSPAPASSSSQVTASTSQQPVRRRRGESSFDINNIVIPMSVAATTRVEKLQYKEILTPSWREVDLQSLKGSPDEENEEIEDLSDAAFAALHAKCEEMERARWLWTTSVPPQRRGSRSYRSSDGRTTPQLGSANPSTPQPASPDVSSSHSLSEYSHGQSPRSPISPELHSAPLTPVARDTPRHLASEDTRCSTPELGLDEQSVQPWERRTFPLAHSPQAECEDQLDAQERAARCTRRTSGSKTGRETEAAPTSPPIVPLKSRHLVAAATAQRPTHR
UniProt Q14573, whole entry, looked up: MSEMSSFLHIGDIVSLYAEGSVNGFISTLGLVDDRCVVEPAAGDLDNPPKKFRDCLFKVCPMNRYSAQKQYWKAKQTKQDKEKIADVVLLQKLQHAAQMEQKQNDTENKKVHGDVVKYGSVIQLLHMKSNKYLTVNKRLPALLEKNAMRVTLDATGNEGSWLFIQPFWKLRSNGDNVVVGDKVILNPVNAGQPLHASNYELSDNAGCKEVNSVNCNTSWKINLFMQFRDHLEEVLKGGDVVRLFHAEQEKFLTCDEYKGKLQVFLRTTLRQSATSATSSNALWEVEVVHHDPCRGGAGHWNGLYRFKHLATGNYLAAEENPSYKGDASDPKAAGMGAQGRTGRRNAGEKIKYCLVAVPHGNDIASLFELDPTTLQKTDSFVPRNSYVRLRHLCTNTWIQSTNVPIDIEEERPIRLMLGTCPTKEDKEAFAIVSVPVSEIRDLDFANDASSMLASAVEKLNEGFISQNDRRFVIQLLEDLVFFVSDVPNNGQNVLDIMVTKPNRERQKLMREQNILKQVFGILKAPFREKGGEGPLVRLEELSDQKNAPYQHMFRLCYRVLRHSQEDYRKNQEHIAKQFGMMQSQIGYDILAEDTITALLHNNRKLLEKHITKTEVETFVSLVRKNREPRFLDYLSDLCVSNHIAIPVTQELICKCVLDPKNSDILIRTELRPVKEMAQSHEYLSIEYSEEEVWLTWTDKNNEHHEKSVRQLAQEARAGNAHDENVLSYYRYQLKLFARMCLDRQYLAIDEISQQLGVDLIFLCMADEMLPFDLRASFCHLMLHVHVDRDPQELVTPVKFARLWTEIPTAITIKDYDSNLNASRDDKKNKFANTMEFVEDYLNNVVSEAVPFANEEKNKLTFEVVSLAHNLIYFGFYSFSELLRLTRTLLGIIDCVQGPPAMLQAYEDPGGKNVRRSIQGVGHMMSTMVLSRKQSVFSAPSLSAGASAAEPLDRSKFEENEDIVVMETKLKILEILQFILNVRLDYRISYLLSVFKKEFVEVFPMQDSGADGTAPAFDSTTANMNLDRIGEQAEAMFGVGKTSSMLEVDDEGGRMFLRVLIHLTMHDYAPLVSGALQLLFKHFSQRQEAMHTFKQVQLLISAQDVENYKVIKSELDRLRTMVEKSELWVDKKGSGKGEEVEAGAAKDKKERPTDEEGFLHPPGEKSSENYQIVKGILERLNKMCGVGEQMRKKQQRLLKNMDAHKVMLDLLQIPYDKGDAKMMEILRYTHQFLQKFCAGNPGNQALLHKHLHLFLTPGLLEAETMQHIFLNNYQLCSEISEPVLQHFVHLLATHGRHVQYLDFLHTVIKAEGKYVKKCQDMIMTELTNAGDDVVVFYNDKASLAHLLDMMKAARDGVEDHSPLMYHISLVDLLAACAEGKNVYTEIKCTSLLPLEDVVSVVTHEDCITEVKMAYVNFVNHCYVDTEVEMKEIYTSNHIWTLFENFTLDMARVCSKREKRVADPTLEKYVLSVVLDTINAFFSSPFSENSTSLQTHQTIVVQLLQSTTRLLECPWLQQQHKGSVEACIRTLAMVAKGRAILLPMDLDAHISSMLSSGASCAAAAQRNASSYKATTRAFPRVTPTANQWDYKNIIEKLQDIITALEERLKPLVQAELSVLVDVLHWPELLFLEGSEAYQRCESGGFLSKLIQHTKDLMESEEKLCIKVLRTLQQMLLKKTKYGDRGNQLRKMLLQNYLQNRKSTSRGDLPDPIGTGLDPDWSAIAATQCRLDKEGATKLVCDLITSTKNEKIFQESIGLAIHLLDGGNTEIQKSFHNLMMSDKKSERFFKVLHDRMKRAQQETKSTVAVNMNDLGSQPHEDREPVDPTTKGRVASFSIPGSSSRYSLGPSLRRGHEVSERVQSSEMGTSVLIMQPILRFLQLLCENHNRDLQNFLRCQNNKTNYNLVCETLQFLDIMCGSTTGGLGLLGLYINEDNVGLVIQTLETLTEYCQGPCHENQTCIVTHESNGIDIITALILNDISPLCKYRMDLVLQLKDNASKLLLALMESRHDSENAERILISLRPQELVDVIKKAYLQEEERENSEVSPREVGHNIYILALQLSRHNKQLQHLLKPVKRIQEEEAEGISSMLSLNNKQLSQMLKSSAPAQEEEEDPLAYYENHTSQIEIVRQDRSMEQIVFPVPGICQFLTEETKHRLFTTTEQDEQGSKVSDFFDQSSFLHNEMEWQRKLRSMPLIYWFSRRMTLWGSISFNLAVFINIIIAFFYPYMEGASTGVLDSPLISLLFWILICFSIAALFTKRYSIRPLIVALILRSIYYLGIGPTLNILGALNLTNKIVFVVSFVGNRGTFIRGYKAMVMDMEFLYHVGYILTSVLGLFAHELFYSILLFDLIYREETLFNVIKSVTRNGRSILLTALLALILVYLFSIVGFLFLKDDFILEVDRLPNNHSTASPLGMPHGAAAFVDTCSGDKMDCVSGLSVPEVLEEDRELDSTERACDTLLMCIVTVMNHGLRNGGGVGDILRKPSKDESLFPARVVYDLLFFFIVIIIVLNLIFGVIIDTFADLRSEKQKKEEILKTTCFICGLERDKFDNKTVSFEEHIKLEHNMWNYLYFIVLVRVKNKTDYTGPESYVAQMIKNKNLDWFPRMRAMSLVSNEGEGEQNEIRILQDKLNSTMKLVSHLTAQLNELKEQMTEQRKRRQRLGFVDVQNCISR
UniProt Q96AZ6: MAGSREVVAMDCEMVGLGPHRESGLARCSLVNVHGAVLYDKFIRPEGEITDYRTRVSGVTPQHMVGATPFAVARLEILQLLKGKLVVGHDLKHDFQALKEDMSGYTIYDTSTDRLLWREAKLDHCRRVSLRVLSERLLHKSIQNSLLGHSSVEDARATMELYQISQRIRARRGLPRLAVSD

Compound in the first assay: CC(C)(O)CC(=O)NCCn1ccc2ncnc(Nc3ccc(Oc4cccc(C(F)(F)F)c4)c(Cl)c3)c21
In words: log2 fold change, soluble protein after heating vs DMSO (PISA); higher = thermal stabilisation; K562 lysate, 10 uM; active = over 0.2 and 3.5 SD of the protein, either way, in both replicates (recomputed). The method in brief:
(§1)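 Following dounce homogenisation of K562 pellets in PBS pH 7.4 with 1 mM MgCl2, crude extract at 1 mg/mL protein was incubated for 30 min with 10 μM compound. Aliquots were then heated for 3 min over 48°C-58°C and pooled, NP-40 was added to 0.5% at 4°C, and soluble protein was recovered as the supernatant at 21,000xg for 90 min. Channel-sum-equalised TMTpro 16plex LC-MS/MS quantified this protein. Each value, from duplicates, is a log-two fold change in thermal stability relative to solvent controls.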
Turning to KCNN4 (UniProt O15554), the log2 fold change is inactive: 0.031.
Consider IRF9 (UniProt Q00978), for which the log2 fold change is inactive: -0.066.
As to ITIH3 (UniProt Q06033), the log2 fold change is inactive: -0.051.
For the target ITGB3BP isoform 5 (UniProt Q13352), the log2 fold change is inactive: 0.027.
Same read-out and setting: in the case of KANK2 isoform 2 (UniProt Q63ZY3) it was inactive: -0.183; in that of ITFG2 (UniProt H0YGR0), inactive: -0.04.
On to KCTD7 (UniProt Q96MP8), for which the log2 fold change is inactive: 0.111.
Take IPP (UniProt Q9Y573): the log2 fold change was inactive: -0.056.
Same read-out and setting: the result for KDELR3 (UniProt O43731) reads inactive: 0.089; that for IST1 isoform 2 (UniProt P53990), inactive: 0.038.
On the same count and under the same terms, the result for INTU (UniProt Q9ULD6) reads inactive: 0.091; that for JAK2 (UniProt O60674), inactive: -0.062.
With JUN (UniProt P05412), the log2 fold change is inactive: -0.007.
Regarding INTS6L (UniProt Q5JSJ4), the log2 fold change was inactive: 0.085.
On to KAT2A (UniProt Q92830), for which the log2 fold change is inactive: 0.11.
ITPR2 (UniProt Q14571): the log2 fold change was inactive: -0.233.
For the target ISG20L2 (UniProt Q9H9L3), the log2 fold change is inactive: -0.038.
As for KANSL1 (UniProt Q7Z3B3), the log2 fold change was inactive: 0.096.
As to IPO5 (UniProt H0Y3V4), the log2 fold change is inactive: -0.184.
Turning to KANSL2 (UniProt Q9H9L4), the log2 fold change was inactive: 0.183.
For ITGA2B (UniProt P08514), the log2 fold change is inactive: -0.08.
Regarding KDM2B (UniProt Q8NHM5), the log2 fold change is inactive: -0.052.

Compound in the next assay: CC(C)C1=C2N=C(C=C(N2N=C1)NCC3=CC=CC=C3)NCCCCCCN
Described as above. In outline:
as §1
With KCNN4 (UniProt O15554), the log2 fold change was inactive: -0.036.
On to IRF9 (UniProt Q00978), for which the log2 fold change is inactive: 0.132.
Consider ITIH3 (UniProt Q06033), for which the log2 fold change is inactive: -0.018.
Take JCHAIN (UniProt P01591): the log2 fold change is inactive: 1.97.
Same read-out and setting: in the case of KCTD7 (UniProt Q96MP8) it was inactive: 0.123; in that of IPP (UniProt Q9Y573), inactive: -0.073.
In the case of KDELR3 (UniProt O43731), the log2 fold change was inactive: -0.206.
As to IST1 isoform 2 (UniProt P53990), the log2 fold change is inactive: 0.02.
JAK2 (UniProt O60674): the log2 fold change is inactive: 0.145.
On the same count and under the same terms, the result for KATNBL1 (UniProt Q9H079) reads inactive: 0.156; that for JOSD1 (UniProt Q15040), inactive: -0.198.
On to IQCB1 (UniProt Q15051), for which the log2 fold change was inactive: 0.027.
Regarding JUN (UniProt P05412), the log2 fold change is inactive: 0.098.
Take KCNH2 (UniProt Q12809): the log2 fold change was inactive: -0.066.
For INTS6L (UniProt Q5JSJ4), the log2 fold change was inactive: 0.082.
Take ITPR3 (UniProt Q14573): the log2 fold change is inactive: 0.065.
Consider ITPRIP (UniProt Q8IWB1), for which the log2 fold change was inactive: 0.023.
For the target ITPR2 (UniProt Q14571), the log2 fold change was inactive: 0.063.
With ISG20L2 (UniProt Q9H9L3), the log2 fold change was inactive: 0.048.
Consider KANSL1 (UniProt Q7Z3B3), for which the log2 fold change is inactive: -0.033.
In the case of IPO5 (UniProt H0Y3V4), the log2 fold change was inactive: -0.007.
Regarding KANSL2 (UniProt Q9H9L4), the log2 fold change was inactive: -0.089.
Regarding ISG20 (UniProt Q96AZ6), the log2 fold change was inactive: -0.025.
On the same count and under the same terms, in the case of ITGA2B (UniProt P08514) it was inactive: -0.072; in that of KDM2B (UniProt Q8NHM5), inactive: -0.075.

For the origin of these results see the supplement of paper PMC10849652.
